In article PMC9409353:
No constants are given. Whether binding was seen depends on the method and setting. Binding calls can cover weak binding; strength is not graded here.

By UniProt entry, the sequences of proteins in these tests, tags left out. Where a name states a change or a piece, a line headed by the entry shows the natural chain unless it says otherwise.
UniProt G3XKQ9: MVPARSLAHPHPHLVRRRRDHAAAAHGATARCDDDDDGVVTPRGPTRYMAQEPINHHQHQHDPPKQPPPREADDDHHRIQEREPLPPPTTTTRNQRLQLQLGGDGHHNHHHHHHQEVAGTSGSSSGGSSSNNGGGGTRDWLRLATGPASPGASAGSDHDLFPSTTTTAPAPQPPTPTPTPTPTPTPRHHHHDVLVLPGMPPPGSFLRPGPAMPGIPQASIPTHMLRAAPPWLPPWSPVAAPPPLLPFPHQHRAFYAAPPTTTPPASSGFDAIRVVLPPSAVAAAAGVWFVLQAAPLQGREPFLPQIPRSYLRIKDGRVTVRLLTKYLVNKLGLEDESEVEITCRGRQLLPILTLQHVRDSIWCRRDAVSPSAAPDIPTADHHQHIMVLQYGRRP
UniProt Q8H3Q1: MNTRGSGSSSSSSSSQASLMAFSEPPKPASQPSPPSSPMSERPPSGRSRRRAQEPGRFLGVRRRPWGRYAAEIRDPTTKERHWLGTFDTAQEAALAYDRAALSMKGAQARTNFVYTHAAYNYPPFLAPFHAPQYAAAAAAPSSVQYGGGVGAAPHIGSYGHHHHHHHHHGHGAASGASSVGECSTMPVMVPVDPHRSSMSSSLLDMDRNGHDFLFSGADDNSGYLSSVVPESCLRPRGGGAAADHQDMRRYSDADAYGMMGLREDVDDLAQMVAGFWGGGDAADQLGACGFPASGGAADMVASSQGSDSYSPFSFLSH

Molecular target: GST-LAX2 (rice (Oryza sativa L.)) (UniProt G3XKQ9)
Test: pull-down; purified recombinant proteins incubated 2 h at 4 °C in 50 mM Tris-HCl pH 7.5, 5% glycerol, 1 mM EDTA, 1 mM DTT, 1 mM PMSF, 0.01% Nonidet P-40, 150 mM KCl; MBP-PAA7 pulled down by GST-LAX2 (legend; methods say His-beads), immunoblot with anti-MBP; both purified

binding: binds
Substance: MBP-PAA7 (from UniProt Q8H3Q1 1-318)
